Results from patent publication US20200123260A1.
No constants are given. Whether binding was seen depends on the method and setting. Some binding calls cover weakened binding; strength is not graded here.

The chains behind the UniProt entries cited, without tags or fusion partners. Residues count along the entry.
UniProt Q16620, residues 32-822: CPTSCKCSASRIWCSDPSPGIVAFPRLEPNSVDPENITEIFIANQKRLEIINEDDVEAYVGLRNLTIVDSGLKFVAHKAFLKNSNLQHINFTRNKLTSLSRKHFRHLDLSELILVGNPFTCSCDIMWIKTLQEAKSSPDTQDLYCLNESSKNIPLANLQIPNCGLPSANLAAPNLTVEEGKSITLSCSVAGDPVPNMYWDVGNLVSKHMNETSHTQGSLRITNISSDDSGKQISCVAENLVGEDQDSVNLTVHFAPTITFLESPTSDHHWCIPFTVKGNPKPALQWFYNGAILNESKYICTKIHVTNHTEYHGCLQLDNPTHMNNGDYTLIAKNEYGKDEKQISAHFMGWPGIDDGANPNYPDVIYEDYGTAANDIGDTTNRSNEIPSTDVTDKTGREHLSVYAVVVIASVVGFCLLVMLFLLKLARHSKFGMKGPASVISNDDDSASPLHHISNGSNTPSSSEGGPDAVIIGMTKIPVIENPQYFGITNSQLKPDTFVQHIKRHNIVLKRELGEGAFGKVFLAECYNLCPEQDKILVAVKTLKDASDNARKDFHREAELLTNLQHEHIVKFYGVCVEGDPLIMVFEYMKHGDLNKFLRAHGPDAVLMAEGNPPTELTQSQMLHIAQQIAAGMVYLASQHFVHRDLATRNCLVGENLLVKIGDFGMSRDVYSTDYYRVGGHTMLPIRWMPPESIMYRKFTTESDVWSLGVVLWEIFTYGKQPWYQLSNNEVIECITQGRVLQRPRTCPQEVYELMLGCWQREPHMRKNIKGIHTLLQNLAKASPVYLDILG

Columns and labels:
[1] = molecular target: human TrkB (open reading frame from nm_006180) on HEK293 cells (human) (UniProt Q16620); experiment: FACS on transfected HEK293 cells
[2] = molecular target: human TrkB (open reading frame from nm_006180) on HEK293 cells (human) (UniProt Q16620); experiment: FACS on transfected HEK293 cells, 1 µg/ml
[3] = molecular target: human TrkB (open reading frame from nm_006180) on HEK293 cells (human) (UniProt Q16620); experiment: cell-based ELISA on transfected 293 cells
[4] = molecular target: human TrkB (open reading frame from nm_006180) on HEK293 cells (human) (UniProt Q16620); experiment: cell-based ELISA on transfected HEK293 cells
[5] = molecular target: human TrkB (open reading frame from nm_006180) on HEK293 cells (human) (UniProt Q16620); experiment: cell-based ELISA on transfected 293 cells, anti-IgG-HRP, TMB, OD450
[6] = molecular target: human TrkB (open reading frame from nm_006180) on HEK293 cells (human) (UniProt Q16620); experiment: cell-based ELISA on HEK293 cells transiently transfected with hTrkB (293-TrkB)
[7] = molecular target: human TrkB (open reading frame from nm_006180) on HEK293 cells (human) (UniProt Q16620); experiment: FACS on transiently transfected HEK293 cells, FITC-labeled mouse anti-human IgG
[8] = molecular target: human TrkB (open reading frame from nm_006180) on HEK293 cells (human) (UniProt Q16620); experiment: FACS on HEK293 cells transiently transfected with hTrkB, TAM-163 at […]

binding [1]: binds
binding [2]: binds
binding [3]: binds
binding [4]: binds
binding [5]: binds
binding [6]: binds
binding [7]: binds
binding [8]: binds
B1: TAM-163 (huTOA-1 v1.0/1.4) (antibody, human IgG1, kappa, V domains shown)
VH: EVQLVESGGGLVQPGGSLRLSCAASGYSFTAYFMNWVRQAPGKGLEWVARINPNNGDTFYTQKFKGRFTISRDNAKNSLYLQMNSLRAEDTAVYYCARRDYFGAMDYWGQGTLVTVSS
VL: DIQMTQSPSSLSASVGDRVTITCRASQTISNNLHWYQQKPGKAPKLLIKSASLAISGVPSRFSGSGSGTDFTLTISSLQPEDFATYYCQQSNSWPNTFGGGTKVEIKR
